{"source": "patent US20240325531A1", "about": "“CAR T/NK-CELLS FOR USE IN THE TREATMENT OF INVASIVE FUNGAL INFECTIONS” (UNIVERSITAT DE BARCELONA, priority 2021, published 2024)", "system": "acute panmyelosis with myelofibrosis", "experiment": "Patient's earlier treatment of relapsed haematological disease", "format": "in vivo, human", "details": "venetoclax plus azacytidine, after the first two cycles, one patient", "note": "For at least one compound, name, drawing or mass did not settle the structure."}
{"smiles": "CC1(C)CCC(CN2CCN(c3ccc(C(=O)NS(=O)(=O)c4ccc(NCC5CCOCC5)c([N+](=O)[O-])c4)c(Oc4cnc5[nH]ccc5c4)c3)CC2)=C(c2ccc(Cl)cc2)C1", "note": "[venetoclax]", "values": [{"measurement": "response of haematological disease", "value": "partial response"}]}
